Assay results as given in PMC12040169 (PLOS Biology, 2025).
The other results are listed elsewhere or left out.

Test system: T1, CTL2-GFP (C. trachomatis L2/434/Bu, GFP-expressing)
T1 construct: L2/434/Bu, GFP-expressing
Design: species or system HeLa; Intracellular C. trachomatis growth in HeLa cells, bulk GFP fluorescence relative to DMSO
Conditions: bulk GFP, single well; 28.5 h, 10 µM; inhibitor

SMILES | % of control remaining [%]
O/N=C1/CCCCCC1NO (stereo not drawn) [CBK264368A] | 128.092
COc1ncc(-c2cncc(N3CCN(c4ccc(OC)c(OC)c4)CC3)n2)c(OC)n1 [CBK065169] | 130.018
CC(C)CN1CC(C(=O)N(C)CC2OCCc3ccccc32)CC1=O (stereo not drawn) [CBK282093] | 135.72
CCCC(=O)NCCn1ncc(-c2ccncc2)c1C1CC1 [CBK282116] | 153.605
CC(=O)N(C)c1nc(-c2cccc(N(C)C)c2)ccc1C(=O)N(C)C [CBK076555] | 154.464
COc1cccc(Nc2cc(-c3ccco3)ncn2)c1 [CBK090740] | 91.8039
Cc1cnc2c(c1)cc(C1CCOCC1)n2CC(=O)NC1CCCC1 [CBK284755] | 94.3647
O=C(Nc1ccccc1)C(N1CCCCC1)N1CCCCC1 [CBK263425] | 121.925
CN(C)CCn1c(=O)[nH]c2ncc(-c3cc(C(F)(F)F)cc(C(F)(F)F)c3)nc21 [CBK065028] | 146.227
CC1CCCN(Cc2c(C3CCOCC3)[nH]c3ncccc23)C1 (stereo not drawn) [CBK284687] | 134.353
COc1cc(Br)c(/C=C(/C#N)C(=O)Nc2ccc(O)cc2)cc1OC [CBK262733] | 100
CC(Oc1ccc(-c2ccccc2)cc1)C(=O)Nc1ccc(S(N)(=O)=O)cc1 (stereo not drawn) [CBK267979] | 118.625
COc1cc(CNc2ncc(-c3ccc(N4CCOCC4)cc3)n3ccnc23)cc(OC)c1OC [CBK091219] | 136.233
O=C(NCC1Cc2ccccc2O1)c1cccc(NC(=O)c2ccco2)c1 (stereo not drawn) [CBK298302] | 158.441
O=C(NC1(c2ccc(F)cc2)CCCC1)c1cnn2cccnc12 [CBK283612] | 116.843
COc1cc(Nc2cncc(-c3ccc(N)cc3)n2)cc(OC)c1OC [CBK065642] | 110.363
O=C(O)c1cccc(N2C(=O)C3C4C=CC(C3C2=O)C2C(=O)N(c3cccc(C(=O)O)c3)C(=O)C42)c1 (stereo not drawn) [CBK261495] | 86.4331
CCC(CN1CCOCC1)NC(=O)Cc1coc2cc(C)cc(C)c12 (stereo not drawn) [CBK282812] | 131.456
Cc1ccc(S(=O)(=O)N2CCOCC2)cc1C(=O)Oc1cccc2cccnc12 [CBK269726] | 157.933
CC(NC(=O)CC1(N2CCOCC2)CCCC1)c1cccc(C#N)c1 (stereo not drawn) [CBK305320] | 108.625
CCOC(=O)Cn1nc(CC)n2c(cc3sccc32)c1=O [CBK284073] | 156.143
Brc1ccc(CN2CCN(Cc3c[nH]c4ccccc34)CC2)cc1 [CBK027622] | 100.256
CC(C)NCC(O)COCc1ccc(Cl)cc1 (stereo not drawn) [CBK261406C] | 109.734
CN(CC(=O)NNC(=O)c1ccc(C(C)(C)C)cc1)S(=O)(=O)c1cc(Cl)ccc1Cl [CBK267376] | 127.916
Cn1c(=O)c2c(nc(CN3CCCCC3)n2CCCO)n(C)c1=O [CBK269280] | 111.846
Cc1ccc(S(=O)(=O)Nc2nc(C)cs2)cc1 [CBK102326] | 142.561

SMILES | % of control remaining [%]
NS(=O)(=O)c1ccc(NC(=O)CSc2cccc3ccccc23)cc1 [CBK268987] | 137.448
CCCCC(c1cccnc1)N(C)C(=O)c1cccn(C)c1=O (stereo not drawn) [CBK307496] | 117.137
COc1cc(/C=N/NC(=O)c2ccc([N+](=O)[O-])cc2)ccc1OC(C)=O [CBK261348] | 120.426
NC(=O)CCN1CCCC2(CCN(C(=O)Cc3c[nH]c4ccccc34)C2)C1 (stereo not drawn) [CBK132041] | 115.703
Cc1cc2c(cc1C)OC1(C=C2)CCN(C(=O)N2CCOCC2)CC1 [CBK285314] | 115.503
CC(=O)NCCc1nc2cc(NC(=O)Nc3ccccc3)ccc2n1C [CBK268216] | 109.647
COC(=O)[C@@H](C)NC(=O)[C@H]1CN(C(=O)c2cccnc2)CCN1C(=O)c1cccs1 [CBK289628] | 100.37
CCCCCn1c(=O)c(C(=O)Nc2cccc(O)c2)c(O)c2ccccc21 [CBK291189] | 106.839
CC(=O)NC(c1nccs1)C1CCN(C(=O)C(C)(C)C)CC1 (stereo not drawn) [CBK284677] | 115.04
CCOC(=O)c1sc2nc(C(C)N3CCCCC3)[nH]c(=O)c2c1C (stereo not drawn) [CBK306078] | 98.0555
OCCNc1nc(Cl)nc(Nc2nc(-c3ccccc3)cs2)n1 [CBK261381] | 100
N#CCCn1cc(C(=O)N2CCCCC2)c(-c2cccc(Cl)c2)n1 [CBK306209] | 136.856
CCN1CCC2(CC1)NC(=O)Cc1ccccc12 [CBK039810] | 96.9151
CC1CCCCN1C(=O)c1ccc(-n2ccnc2)c(-n2cccc2)c1 (stereo not drawn) [CBK284832] | 104.758
O=C(O)C(c1c[nH]c2ccccc12)N1CCN(S(=O)(=O)c2ccccc2)CC1 (stereo not drawn) [CBK286643] | 134.096
O=C(CSc1nc2ccccc2c(=O)n1-c1ccc(F)cc1)Nc1ccc(C(=O)O)cc1 [CBK296140] | 143.343
O=C(NC(c1ccc(Cl)cc1)c1ccsc1)C1CCN(CCCN2C(=O)CC3CCCCC3C2=O)CC1 (stereo not drawn) [CBK147974] | 147.374
Cc1cc2ccccc2n2c(=O)n(Cc3cscn3)nc12 [CBK282381] | 111.236
COc1cc2c(cc1OC)CN(C(=O)c1ccc3[nH]cnc3c1)CC2 [CBK295331] | 109.802
O=S(=O)(c1c(F)cccc1F)N1CCN(Cc2ccc3c(c2)OCO3)CC1 [CBK074600] | 102.156
COc1ccc(S(=O)(=O)n2ccn(C(c3ccccc3)c3ccccc3)c2=O)cc1OC [CBK106621] | 105.056
CC(=O)N1CCc2cc(Nc3ncnc4c3cnn4CCC#N)ccc21 [CBK305950] | 103.356
COC(=O)c1cc(Br)c(NC(=O)c2cccs2)cc1OC [CBK066842] | 164.753
CNC(=O)C1(Cc2ccccc2-c2cccs2)CCN(C(=O)Cc2ccc(C)cc2)CC1 [CBK285697] | 135.1
Cc1ccc(C)c(NC(=O)CC2C(=O)N(c3ccccc3)C(=S)N2Cc2ccco2)c1 (stereo not drawn) [CBK267119] | 141.946
CSc1ncc(C(=O)N2CCN3CCN(C)CC3C2)c(=O)[nH]1 (stereo not drawn) [CBK307677] | 101.613

SMILES | % of control remaining [%]
COc1ccc(C(C)C)cc1-c1nccnc1N1CCCN(C)CC1 [CBK036677] | 109.679
Cc1ccc(NC(=O)COc2ccc(/C=C\c3onc(C)c3[N+](=O)[O-])cc2)cc1 [CBK268928] | 116.783
Cc1ccc2[nH]c(C)c(CC(=O)N(C)CCN(C)C)c2c1 [CBK282674] | 101.328
O=C(CN(C1CCCCC1)S(=O)(=O)c1ccc(Br)cc1)NCc1ccccn1 [CBK264846] | 117.001
O=S(=O)(Cc1ccccc1Cl)NCCN1CCOCC1 [CBK269171] | 157.766
O=C(c1cc(F)cc(F)c1)N1CCC(n2cnc3cccnc32)CC1 [CBK283636] | 113.032
CS(=O)(=O)Nc1ccc(C(=O)Nc2ccc(S(=O)(=O)N3CCCC3)cc2)cc1 [CBK268592] | 113.125
CCC(NC1CCc2nc(COC)nn2C1)C1CCC1 (stereo not drawn) [CBK304739] | 121.996
Cc1cccc(C)c1OCc1nnc(SCC(=O)c2ccc(F)cc2)n1C [CBK269715] | 122.962
Cc1cc(C)nc(SCc2nc3ccc([N+](=O)[O-])cc3[nH]2)n1 [CBK264634] | 100
COc1ccc(C2=NN(c3ccc(C(=O)O)cc3)C(c3ccc(OC)c(OC)c3)C2)cc1 (stereo not drawn) [CBK296134] | 123.973
OCCN1CCN(CC(O)COc2ccc(Cl)cc2Cl)CC1 (stereo not drawn) [CBK278198C] | 100
Cc1ccc(NC(=O)Cn2c(=O)cc(O)c3ccccc32)cc1 [CBK291116] | 120.74
Cc1cc2c(cc1C)N(C(=O)CSc1nc3ccccc3[nH]1)C(C)(C)CC2C (stereo not drawn) [CBK264144] | 109.031
Cc1cc(C)cc(/N=C2\NC(=O)C(CC(=O)O)S2)c1 (stereo not drawn) [CBK286878] | 125.032
FC(F)(F)c1cccc(Oc2nnnn2-c2ccccc2)c1 [CBK002798] | 108.263
CN1CCN(c2ccc(NC(=O)c3cc4oc(-c5ccccc5)nc4c(=O)n3C)cc2)CC1 [CBK200425] | 140.608
COC(=O)CCc1ccc(S(=O)(=O)N2CCCN(Cc3ccc4c(c3)OCO4)CC2)cc1 [CBK063130] | 92.2257
O=S(=O)(Nc1nnc(C(F)(F)F)s1)c1csc2ccccc12 [CBK062009] | 112.068
Cc1nn(CCNC(=O)C2CC3C=CC2C32CC2)c(C)c1Cl (stereo not drawn) [CBK281429] | 120.545
O=C(Nc1ccc(N2CCNCC2)nc1)c1cccnc1 [CBK029439T] | 109.78
O=C(Nc1ccc2c(c1)OCO2)c1nccnc1-c1ccc(COc2ccccc2)cc1 [CBK050834] | 100.351
COc1cccc(CCN2N=C(C)CC2=O)c1OC [CBK067766] | 118.953
Cn1ncc2c(=O)[nH]c(N3CCN(c4cc(C#N)ccn4)CC3)nc21 [CBK304924] | 127.804
COc1cc(CNc2cncc(-c3cccc(C(=O)NCCO)c3)n2)cc(OC)c1OC [CBK065421] | 128.743
O=C(CC1NCCNC1=O)Nc1cccc(Cl)c1 (stereo not drawn) [CBK266454] | 89.3427

Single entries from the results shown.
COc1cc(CNc2cncc(-c3cccc(C(=O)NCCO)c3)n2)cc(OC)c1OC [CBK065421] – % of control remaining [%]: 128.743
CCN1CCC2(CC1)NC(=O)Cc1ccccc12 [CBK039810] – % of control remaining [%]: 96.9151
NC(=O)CCN1CCCC2(CCN(C(=O)Cc3c[nH]c4ccccc34)C2)C1 (stereo not drawn) [CBK132041] – % of control remaining [%]: 115.703
CCCCCn1c(=O)c(C(=O)Nc2cccc(O)c2)c(O)c2ccccc21 [CBK291189] – % of control remaining [%]: 106.839
CCOC(=O)c1sc2nc(C(C)N3CCCCC3)[nH]c(=O)c2c1C (stereo not drawn) [CBK306078] – % of control remaining [%]: 98.0555
